Measurements published in ChEMBL document CHEMBL3046626, “Antifungal chalcones and new caffeic acid esters from Zuccagnia punctata acting against soybean infecting fungi” (2004).
In brackets after ≈: the same amount, converted by molar mass.

Columns and labels:
Format in all cases: functional
Fusarium graminearum [1] = test: microbe, parasite or virus in culture; settings: isolate CE170
Fusarium equiseti = test: Antifungal activity against Fusarium equiseti (CE181) after 48 to 72 hr
Fusarium graminearum [2] = test: microbe, parasite or virus in culture; settings: isolate CE135
Colletotrichum truncatum = test: Antifungal activity against Colletotrichum truncatum CE175 after 48 to 72 hr
Macrophomina phaseolina = test: Antifungal activity against Macrophomina phaseolina isolate CE173 after 48 to 72 hr
Alternaria alternata = test: Antifungal activity against Alternaria alternata (CE172) after 48 to 72 hr
Diaporthe longicolla = test: Antifungal activity against Diaporthe longicolla CE117 after 48 to 72 hr
Fusarium graminearum [3] = test: microbe, parasite or virus in culture; settings: isolate CE171
Fusarium graminearum [4] = test: microbe, parasite or virus in culture; settings: isolate CE169

SMILES: O=C1CC(c2ccccc2)Oc2cc(O)ccc21 (centres undefined) [7-HYDROXYFLAVANONE]
- MIC (Fusarium graminearum [1]): > 50 µg/mL
- MIC (Fusarium equiseti): > 50 µg/mL
- MIC (Fusarium graminearum [2]): > 50 µg/mL
- MIC (Colletotrichum truncatum): > 50 µg/mL
- MIC (Macrophomina phaseolina): > 50 µg/mL
- MIC (Alternaria alternata): > 50 µg/mL
- MIC (Diaporthe longicolla): 6.25 µg/mL (≈ 26 µM)
- MIC (Fusarium graminearum [3]): > 50 µg/mL
- MIC (Fusarium graminearum [4]): > 50 µg/mL
